# Reference: PubChem BioAssay AID504467 (National Center for Advancing Translational Sciences (NCATS), 2011)
# In all, about 330,000 compounds went through this assay and about 7,700 (2.3%) were called active. Inconclusive results, whose numbers are uncertain, are shown with a selection of clear calls. Calls follow the shape of the dose curve; as a rule, active = well fitted inhibition curve with a large enough effect; inconclusive = small, poorly fitted or top-dose-only effect, or effect the other way; inactive = flat fitted curve, though single readings scatter. Potencies of inconclusive entries are doubtful fits and often do not repeat.
# Assay: qHTS screen for small molecules that inhibit ELG1-dependent DNA repair in human embryonic kidney (HEK293T) cells expressing luciferase-tagged ELG1; also: nearly all actives have a fitted effect of over 55% in size
# Conditions: HEK293T ELG1-luciferase reporter, luminescence, 16 h, DNA damage induced by 5-fluorouridine; series mostly up to 46.1 µM
# Procedure, shortened: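 DMSO vehicle served as the neutral condition. Each well held 2,000 cells given 5-fluorouridine plus compound; after 16 hr at 37 °C/5% CO2, ONE-Glo was added and luciferase measured 30 min later.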
# Potency is read from the fitted curve at half-maximal effect.
row,Compound,Potency
1,CC(C)Cc1csc(NC(=O)C(C)C)c1C(=O)O,inactive
2,Cc1ccc(N2C(N)=C(C#N)C3(C(=O)N(C)c4ccccc43)C3=C2CC(C)(C)CC3=O)cc1Cl (stereo not drawn),"inconclusive: 16.4 µM [inhibitor, partial curve]"
3,COc1ccc(NC(=O)[C@@H]2CCCN2S(=O)(=O)c2ccccc2F)cc1S(=O)(=O)N1CCCCC1,active: 14.6 µM
4,Cc1ccccc1CC1SC(N=C(N)N)=NC1=O (stereo not drawn),inactive
5,Cc1sc2ncnc(N3CCC(C(=O)Nc4sc5c(c4C(N)=O)CCC(C)C5)CC3)c2c1C (stereo not drawn),"inconclusive: 5.8 µM [inhibitor, partial curve, poor fit]"
6,COc1cccc(C2=Nc3cccc4cccc(c34)N2)c1,inactive
7,O=C(OCC(=O)N1CCc2ccccc21)c1ccc([N+](=O)[O-])o1,inactive
8,COc1ccc(NCc2nnc(SCC(=O)Nc3ccccc3)n2C)cc1,inactive
9,O=C1CCc2cc(S(=O)(=O)Nc3ccc(F)cc3)ccc2N1,inactive
10,COc1ccc(C)cc1-n1nnnc1SCC(=O)NC1CC1,inactive
11,Cc1nnc(NC(=O)CSc2nc3[nH]ncc3c(=O)[nH]2)s1,inactive
12,CCn1cc(C(=O)OC)c(=O)c2cc(S(=O)(=O)N(C)C3CCCCC3)ccc21,inactive
13,CCOC(=O)C1CCN(C(=O)c2ccc3nc(-c4ccc(OC)cc4)c(-c4ccc(OC)cc4)nc3c2)CC1,"inconclusive: 11.6 µM [inhibitor, partial curve]"
14,COc1nc(Nc2ccc([N+](=O)[O-])cc2)nc(NC2CCCCC2)n1,"inconclusive: 20.6 µM [inhibitor, partial curve, poor fit]"
15,O=C(COC(=O)c1ccc(O)cc1O)NC12CC3CC(CC(C3)C1)C2,"inconclusive: 17.8 µM [activator, partial curve]"
16,CS(=O)(=O)N(CC(=O)N1CCCC1)c1cccc(Cl)c1Cl,inactive
17,CC(C)(C)c1ccc(OCC(=O)Nc2ccncc2)c(Br)c1,inactive
18,CN1CCCC(OC(=O)c2ccccc2F)C1 (stereo not drawn),inactive
19,Cc1cccc(NC(=S)NC(=O)/C=C/c2ccco2)c1,"inconclusive: 29.1 µM [activator, single point]"
20,CC(=O)Nc1ccc(-c2csc(N/N=C\c3ccncc3)n2)cc1,"inconclusive: 29.1 µM [inhibitor, single point]"
21,CCC(C)Nc1nc2c(c(=O)n(C)c(=O)n2C)n1Cc1cccc(C)c1 (stereo not drawn),"inconclusive: 23.1 µM [inhibitor, partial curve]"
22,Cc1ccc2cccc(N)c2n1,inactive
23,CN1CC(=O)NC1=NC(=O)C12CC3CC(CC(C3)C1)C2,inactive
24,Cc1ccc2[nH]c(C(=O)N/N=C/c3ccc([N+](=O)[O-])cc3)c(C)c2c1,"inconclusive: 8.2 µM [inhibitor, partial curve, poor fit]"
25,Cc1nc(Nc2ccccc2)sc1C(=O)Nc1ccccc1,"inconclusive: 13 µM [activator, partial curve]"

row,Compound,Potency
1,Nc1c(-c2ccc(Cl)cc2)cnn1-c1cccc(C(F)(F)F)c1,"inconclusive: 16.4 µM [activator, partial curve]"
2,CCOCCCn1c(C)nc2c[n+](CC(=O)c3ccc4ccccc4c3)cc(Br)c21,"inconclusive: 4.61 µM [inhibitor, partial curve, poor fit]"
3,OC1CCCN(Cc2cn(Cc3ccccc3)nc2-c2cc3ccccc3o2)C1 (stereo not drawn),"inconclusive: 16.4 µM [inhibitor, single point]"
4,Cc1ccc(S(=O)(=O)c2c(N)n(/N=C/c3ccco3)c3nc4ccccc4nc23)cc1C,"inconclusive: 0.58 µM [inhibitor, single point]"
5,CCc1ccc(-c2ccc(SCC(=O)NCC3CCCO3)nn2)cc1 (stereo not drawn),"inconclusive: 8.2 µM [activator, partial curve]"
6,N/C(=N\c1nc2c(c(=O)[nH]1)CCCC2)Nc1ccccc1Sc1ccccc1,"inconclusive: 16.4 µM [activator, single point]"
7,Cn1c(-c2ccc(Cl)nc2)nc2ccccc21,"inconclusive: 18.3 µM [activator, single point]"
8,CCC1CCCCN1C(=O)CCNC(=O)Cn1cnc2ccccc2c1=O (stereo not drawn),inactive
9,O=C(Nc1nc2cc3c(cc2s1)OCCO3)c1cccc(N2C(=O)CCC2=O)c1,"inconclusive: 11.6 µM [activator, partial curve]"
10,COc1ccc(NC(=S)N(CCCN2CCCC(C)C2)Cc2cccs2)cc1 (stereo not drawn),inactive
11,COc1nnc(-c2ccc(N3CCOCC3)c(NC(=O)c3ccco3)c2)c2ccccc12,"inconclusive: 22.4 µM [inhibitor, single point]"
12,O=C(Nc1ccccc1Cc1ccccc1)C1CC(=O)N(c2ccc3c(c2)OCCO3)C1 (stereo not drawn),"inconclusive: 25.9 µM [inhibitor, partial curve]"
13,CCN1CCN(c2cc(C)c3cc(NC(=S)N4CC(C)CC(C)C4)ccc3n2)CC1 (stereo not drawn),inactive
14,COc1ccc(C2=CC(=O)C[C@H](c3ccc(Cl)cc3)C2)cn1,"inconclusive: 29.1 µM [inhibitor, single point]"
15,O=C(Nc1ccccc1)c1cccc(=O)o1,"inconclusive: 23.1 µM [activator, single point]"
16,Cn1c(=O)n(C)c2cc(NC(=O)c3cccc([N+](=O)[O-])c3)c(Br)cc21,"inconclusive: 32.6 µM [activator, single point]"
17,CCOC(=O)C1=C(C)NC(SCC(=O)Nc2nc(C)cs2)=C(C#N)C1c1cccs1 (stereo not drawn),active: 20.6 µM
18,COc1ccc(N(CC(=O)O)S(=O)(=O)c2ccc(OC)c(OC)c2)cc1,inactive
19,CCOc1ccccc1NC(=O)COc1coc(CN2CCc3ccccc32)cc1=O,"inconclusive: 29.1 µM [inhibitor, single point]"
20,COc1ccc(S(=O)(=O)NCC(=O)N(CC(=O)NCc2ccco2)Cc2ccccc2)cc1,inactive
21,CCOC(=O)NC(=O)CSc1nc(-c2ccc(C)c(C)c2)cn1-c1ccccc1,"inconclusive: 3.26 µM [activator, partial curve, poor fit]"
22,CCN(/N=C/c1ccc(Cl)cc1)c1cc(=O)n(C)c(=O)[nH]1,"inconclusive: 23.1 µM [activator, partial curve, poor fit]"
23,Cc1cc(C)c2c3c(sc2n1)C(=O)N(c1ccccc1)CC(=O)N3,"inconclusive: 23.1 µM [inhibitor, single point]"
24,CC1(C)CC2CC(C)(CN2C(=O)Cc2ccccc2)C1 (stereo not drawn),inactive
25,CSc1nnc(-c2cccc(NC(=O)c3ccccc3)c2)n1C,"inconclusive: 1.64 µM [activator, full curve, poor fit]"

# A different layout for 17 compounds above.
row	Compound	Potency
1	Nc1c(-c2ccc(Cl)cc2)cnn1-c1cccc(C(F)(F)F)c1	inconclusive: 16.4 µM [activator, partial curve]
2	CCOCCCn1c(C)nc2c[n+](CC(=O)c3ccc4ccccc4c3)cc(Br)c21	inconclusive: 4.61 µM [inhibitor, partial curve, poor fit]
3	OC1CCCN(Cc2cn(Cc3ccccc3)nc2-c2cc3ccccc3o2)C1 (stereo not drawn)	inconclusive: 16.4 µM [inhibitor, single point]
4	Cc1ccc(S(=O)(=O)c2c(N)n(/N=C/c3ccco3)c3nc4ccccc4nc23)cc1C	inconclusive: 0.58 µM [inhibitor, single point]
5	CCc1ccc(-c2ccc(SCC(=O)NCC3CCCO3)nn2)cc1 (stereo not drawn)	inconclusive: 8.2 µM [activator, partial curve]
6	N/C(=N\c1nc2c(c(=O)[nH]1)CCCC2)Nc1ccccc1Sc1ccccc1	inconclusive: 16.4 µM [activator, single point]
7	Cn1c(-c2ccc(Cl)nc2)nc2ccccc21	inconclusive: 18.3 µM [activator, single point]
8	CCC1CCCCN1C(=O)CCNC(=O)Cn1cnc2ccccc2c1=O (stereo not drawn)	inactive
9	O=C(Nc1nc2cc3c(cc2s1)OCCO3)c1cccc(N2C(=O)CCC2=O)c1	inconclusive: 11.6 µM [activator, partial curve]
10	COc1ccc(NC(=S)N(CCCN2CCCC(C)C2)Cc2cccs2)cc1 (stereo not drawn)	inactive
11	COc1nnc(-c2ccc(N3CCOCC3)c(NC(=O)c3ccco3)c2)c2ccccc12	inconclusive: 22.4 µM [inhibitor, single point]
12	O=C(Nc1ccccc1Cc1ccccc1)C1CC(=O)N(c2ccc3c(c2)OCCO3)C1 (stereo not drawn)	inconclusive: 25.9 µM [inhibitor, partial curve]
13	CCN1CCN(c2cc(C)c3cc(NC(=S)N4CC(C)CC(C)C4)ccc3n2)CC1 (stereo not drawn)	inactive
14	COc1ccc(C2=CC(=O)C[C@H](c3ccc(Cl)cc3)C2)cn1	inconclusive: 29.1 µM [inhibitor, single point]
15	O=C(Nc1ccccc1)c1cccc(=O)o1	inconclusive: 23.1 µM [activator, single point]
16	Cn1c(=O)n(C)c2cc(NC(=O)c3cccc([N+](=O)[O-])c3)c(Br)cc21	inconclusive: 32.6 µM [activator, single point]
17	CCOC(=O)C1=C(C)NC(SCC(=O)Nc2nc(C)cs2)=C(C#N)C1c1cccs1 (stereo not drawn)	active: 20.6 µM

# (continued)

row,Compound,Potency
1,Cc1cc(S(=O)(=O)N2CCOCC2)ccc1OCC(=O)Nc1ccc(F)cc1,inactive
2,O=C(c1ccccc1)N1CCCC(C(=O)N2CCCCCC2)C1 (stereo not drawn),inactive
3,CCC(C)(C)C1CCc2[nH]nc(C(=O)NN)c2C1 (stereo not drawn),"inconclusive: 14.6 µM [activator, partial curve, poor fit]"
4,CC(C)(C)c1ccc(C(=O)OCC(=O)NCc2ccco2)cc1,"inconclusive: 29.1 µM [inhibitor, single point]"
5,C/C(=N/NC(=O)CCc1ccccc1)c1ccco1,"inconclusive: 3.66 µM [activator, partial curve, poor fit]"
6,CCCCc1nnc(NC(=O)Cc2ccc(S(=O)(=O)N3CCOCC3)s2)s1,inactive
7,COc1ccc(C2=NN3C(C2)c2ccccc2OC32C(=O)N(C)c3ccccc32)cc1 (stereo not drawn),"inconclusive: 18.4 µM [activator, partial curve]"
8,COC(=O)c1ccccc1NC(=O)Nc1cc(C(C)(C)C)on1,"inconclusive: 18.3 µM [activator, partial curve]"
9,CCNC(=O)Nc1ccccc1C(=O)OC,"inconclusive: 29.1 µM [inhibitor, single point]"
10,CC(NC(=O)CCc1nnc(-c2ccc(-c3ccccc3)cc2)o1)c1nccs1 (stereo not drawn),"inconclusive: 7.3 µM [activator, partial curve]"
11,COCCCN1CCc2[nH]c(=S)[nH]c(=O)c2C1,inactive
12,CCOc1ccc(-n2c(-c3ccc(OC)cc3)c[n+]3c2CCCCC3)cc1,"inconclusive: 2.31 µM [inhibitor, partial curve]"
13,CC(C)CNC(=O)c1ccc(NC(=O)c2cccs2)cc1,"inconclusive: 10.3 µM [activator, partial curve]"
14,Cc1ccc(C)c(S(=O)(=O)N2CCC(c3nc4c(nnn4Cc4ccc(F)cc4)c(=O)[nH]3)CC2)c1,"inconclusive: 29.1 µM [inhibitor, partial curve, poor fit]"
15,CC(Oc1ccc(Br)cc1)C(=O)NC1CCN(Cc2ccccc2)CC1 (stereo not drawn),"inconclusive: 3.26 µM [inhibitor, single point]"
16,CC(C)CCOP(=O)(c1ccc(N(C)C)cc1)C(O)c1ccc(C(C)C)cc1 (stereo not drawn),inactive
17,Cc1cc(Br)ccc1NC(=O)CN(C)C(=O)CSCc1ccccc1,inactive
18,C[n+]1ccccc1/C=C/c1cc(Br)ccc1O,inactive
19,Cc1sc2nc(C3CC3)nc(SCC(=O)N3CCc4ccccc4C3)c2c1C,"inconclusive: 20.6 µM [inhibitor, partial curve]"
20,Cc1csc(=O)n1CC(=O)OCC(=O)c1ccc(Br)cc1,inactive
21,COc1ccc(C(C(=O)NC2CCCC2)N(C(=O)c2snc(C(N)=O)c2N)C2CCCC2)cc1OC (stereo not drawn),inactive
22,CCOC(=O)N1CCN(C(=O)c2ccc(Cn3c(=S)[nH]c4cc5c(cc4c3=O)OCO5)cc2)CC1,active: 23.1 µM
23,O=c1ccn(-c2ccccc2)[nH]1,"inconclusive: 29.1 µM [activator, single point]"
